# “And” between values parts separate entries of the source, which are not always exact repeats. Identical values can stand only once. Counter-ions that a name gives are not always drawn. This is one part of the list. Rule as the data show it: active = 1.25 or more and inactive = the rest. Many values rest on one well or one pass, so single values are uncertain.
# System: Kcc2-LUC knock-in mouse primary cortical neurons (Kcc2 promoter reporter)
# Experiment: Kcc2 promoter-driven luciferase activity relative to vehicle control (fold of vehicle (ratio)); higher = stronger Kcc2 promoter activation (Kcc2 expression enhancer)
# Conditions: 100 nM; 48 h
row,Compound,Kcc2 promoter-driven luciferase activity
1,CN(CO)c1nc(N(C)CO)nc(N(C)CO)n1 [Trimethyl TMM],inactive: 0.87
2,CN(C)c1ccc2c(SCC(=O)OCC(=O)[C@@]3(O)CC[C@H]4[C@@H]5CCC6=CC(=O)C=C[C@]6(C)[C@H]5C(=O)C[C@@]43C)c3ccc(N(C)C)cc3nc2c1 [Predorine],inactive: 1.03
3,CC(C)CCCC(=O)CCCCCCC(=O)CCN(O)C(=O)[C@@H](N)CO [Lipoxamycin],inactive: 0.26
4,COc1cc(C)cc2c(-c3c(O)cc(O)c4c3C[C@@H](C)N[C@@H]4C)cc(-c3cc(-c4c(O)cc(O)c5c4C[C@@H](C)N[C@@H]5C)c4cc(C)cc(OC)c4c3O)c(O)c12 [Michellamine A],inactive: 1.2
5,"COC(=O)NC1C(C)OC(OC2C/C=C(/C)C3C=CC4C(OC5CC(OC6CCC(OC7CC(O)C(OC8CCC(O)C(C)O8)C(C)O7)C(C)O6)C(OC(C)=O)C(C)O5)C(C)CC(C)C4C3(C)/C(O)=C3/C(=O)OC4(CC(C=O)=CC(O)C4/C=C\2C)C3=O)CC1(C)[N+](=O)[O-] (centres undefined) [Tetrocarcin A, sodium salt]",inactive: 0.86
6,O=Cc1cc([N+](=O)[O-])no1 [3-Nitro-5-formylisoxazole],inactive: 1
7,CO[C@H]1C[C@@H]2CC[C@@H](C)[C@@](O)(O2)C(=O)C(=O)N2CCCC[C@H]2C(=O)O[C@H]([C@H](C)C[C@@H]2CC[C@@H](O)[C@H](OC)C2)CC(=O)[C@H](C)/C=C(\C)[C@@H](O)[C@@H](OC)C(=O)[C@H](C)C[C@H](C)/C=C/C=C/C=C/1C [Rapamycin],inactive: 0.01
8,CN1CCN(CN2C(=O)C3C4C=CC(C3C2=O)C2C3C(=O)N(CN5CCN(C)CC5)C(=O)C3C42)CC1 (centres undefined),inactive: 0.92
9,CCOC(=O)Nc1nc2ccc(Cn3cccc3)cc2[nH]1,inactive: 0.49
10,CNC(=O)c1cc(NC(=O)N(CCC#N)CCN(C(=O)N[C@@H](Cc2ccccc2)C(=O)N[C@@H](CC(C)C)C(=O)NC)c2ccccc2)ccc1OC,inactive: 0.96
11,O=C1C=CC(=O)c2c(O)c(N3CCN(CCOCCO)CC3)c(Br)c(O)c21,inactive: 0.86
12,CCCCOCc1cc(CN2CCN(C)CC2)c(O)c2ncccc12,inactive: 0.92
13,CN(C)c1ccc(C=c2c3ccccc3n3c2cc(-c2ccc(Cl)cc2)[n+]3C)cc1,inactive: 1.01
14,"CCOC(=O)CCn1ncc(Cl)c(Cl)c1=O [Ethyl 3-(4,5-dichloro-6-oxo-1(6H)-pyridazinyl)propanoate]",inactive: 1.03
15,COC(=O)[C@@H]1[C@H](O)[C@H](C)[C@H](O)[C@H](C)/C=C\C=C(/C)C(=O)Nc2c(C)c(OC(C)=O)c3c(c2O)C(=O)C(C)=C2OCOC(=C23)/C(C)=C/[C@@](C)(O)[C@H](O)[C@@H](C)[C@H]1OC(C)=O [Streptovaricin B],inactive: 0.58 and inactive: 0.91
16,CC(C)=CCC(OC(=O)C=C(C)C)C1=CC(=O)c2c(O)ccc(O)c2C1=O (centres undefined) [Arnebin 1],inactive: 0.05
17,COc1cc([C@@H]2c3cc4c(cc3[C@H](O[C@@H]3O[C@@H]5COC(c6ccccc6)O[C@H]5[C@H](O)[C@H]3O)[C@H]3COC(=O)[C@H]23)OCO4)cc(OC)c1OC (some centres undefined) [Proresidor],active: 1.29
18,"O=[n+]1c2c(n([O-])c3ccccc31)-c1cccc3cccc-2c13 [Acenaphtho[1,2-b]quinoxaline 7,12-dioxide]",inactive: 0.97
19,CCCCCCCCCCCCC(O)C(=O)O (centres undefined) [2-Hydroxytetradecanoic acid],inactive: 1.04
20,"CO[C@@H]1[C@@H](OC(=O)c2ccc(C)[nH]2)[C@@H](O)[C@H](Oc2ccc3c(O)c(NC(=O)c4c[nH]c(C(=O)Nc5c(O)c6ccc(O[C@@H]7OC(C)(C)[C@H](OC)[C@@H](OC(=O)c8ccc(C)[nH]8)[C@H]7O)c(C)c6oc5=O)c4C)c(=O)oc3c2C)OC1(C)C [Coumermycin a1, Notomycin A1]",inactive: 1.05

row,Compound,Kcc2 promoter-driven luciferase activity
1,CC1CC(O)C2C3(C)CCCC2(COC3=O)C12CCC1(CCOC1=O)O2 (centres undefined),inactive: 0.988
2,CCCCn1c2c(n(CCCC)c1=S)-c1c(n(CCCC)c(=S)n1CCCC)SSSS2,inactive: 0.01
3,O=c1[nH]c2ccc(O)cc2o1 [6-Hydroxy-2-benzoxazolinone],inactive: 1.23
4,CC1=C(/C=C/C(C)=C/C=C/C(C)=C/C=C/C=C(C)/C=C/C=C(C)/C=C/C2=C(C)CCCC2(C)C)C(C)(C)CCC1 [Beta-Carotene],inactive: 0.953
5,COC(=O)C1CCC(=O)N1C(c1ccc(OC)cc1)c1cc(OC)c(OC)c(OC)c1 (centres undefined),inactive: 0.662
6,CCOC(=O)c1sc2[n+](c1C)C(=O)/C(=C/c1ccc([N+](=O)[O-])cc1)S2,inactive: 0.85
7,COc1ccc(NC(=O)CC(=O)N2N=C(C)C(/N=N/c3ccc(S(=O)(=O)c4ccc(/N=N/C5C(=O)N(C(=O)CC(=O)Nc6ccc(OC)cc6)N=C5C)cc4)cc3)C2=O)cc1 (centres undefined),inactive: 1.17
8,"CCCCCCCCCCCCCCCCCCOCC(COCCOCC[N+]1(CCCCCC(=O)[O-])CCCC1)Oc1ncccn1 (centres undefined) [Pyrrolidinium, inner salt]",inactive: 1.02
9,C=C1C(=O)O[C@@H]2/C=C(/C)C(=O)C[C@H]3OC(C)(C)O[C@]3(C)C[C@@H](OC(=O)/C(C)=C\C)[C@@H]12,inactive: 0.9
10,CC[C@H]1OC(=O)[C@H](C)[C@@H](OC2CC(C)(OC)C(OC(=O)CCCC(=O)O)C(C)O2)[C@H](C)[C@@H](OC2OC(C)CC(N(C)C)C2O)[C@](C)(O)C[C@@H](C)C(=O)[C@H](C)[C@@H](O)[C@]1(C)O (some centres undefined) [Erythromycin Hydrogen Glutarate],active: 1.33
11,O=Nc1ccc(O)c2ncccc12 [5-Nitrosoquinolin-8-ol],inactive: 0.96
12,"CN1c2c(nc(N)[nH]c2=O)NCC1CCNc1ccc(C(=O)NC(CCC(=O)O)C(=O)O)cc1 (centres undefined) [Methyltetrahydrohomofolate, MeTHHF disodium]",inactive: 1.01
13,Cc1cc2c(c3oc(C4(C)OC4C4OC4C)cc(=O)c13)C(=O)c1c(O)c(C3CC(C)(N(C)C)C(O)C(C)O3)cc(C3CC(N(C)C)C(O)C(C)O3)c1C2=O (centres undefined) [Hedamycin],inactive: 0.29
14,CC[C@H](C)C(=O)O[C@H]1CCC=C2C=C[C@H](C)[C@H](CC[C@@H]3C[C@@H](O)CC(=O)O3)[C@H]21 [Mevastatin (Compactin)],inactive: 1
15,"Cc1nc2c(o1)C(=O)c1ccccc1C2=Nc1ccccc1 [2-Methyl-4-phenyliminobenzo[f][1,3]benzoxazol-9-one]",inactive: 0.75
16,"Oc1ccc(-c2nc3ccccc3s2)cc1 [4-(1,3-Benzothiazol-2-yl)phenol]",inactive: 0.94
17,O=c1oc2c(O)c(O)cc3c(=O)oc4c(O)c(O)cc1c4c23 [Ellagic Acid],active: 1.42
18,COc1cc(/C=C(\C)c2ccc3c(c2)OCO3)cc(OC)c1OC,inactive: 0.78
19,Cc1cc2nc(C=C(C(F)(F)F)C(F)(F)F)oc2cc1C,inactive: 1.07

# — the supplement of paper PMC8551327
